Source: PMC2742731
No constants are given. Whether binding was seen depends on the method and setting. For part of these data: Binding can be weak; no strength is given. For part of these data: Sequences can lack the tags named with a protein. Blank lines part the entries; values can stand above or below the binder they belong to.

Columns and labels:
[1] = target: SYP-1 C-terminal truncation (ΔC) fused to the DNA binding domain (DB) of GAL4 (C. elegans); experiment: two-hybrid; library screen: SYP-1, SYP-2 and SYP-3 full-length constructs and N- and C-terminal truncations as baits; cDNA library from mixed-stage worms (SYP-1 and SYP-2 baits also on an ORFeome library)
[2] = target: SYP-1 N-terminal truncation (ΔN) fused to the DNA binding domain (DB) of GAL4 (C. elegans); experiment: as above
[3] = target: SYP-3 C-terminal truncation (ΔC) fused to the DNA binding domain (DB) of GAL4 (C. elegans); experiment: as above
[4] = target: SYP-2 N-terminal truncation (ΔN) fused to the DNA binding domain (DB) of GAL4 (C. elegans); experiment: as above
[5] = target: SYP-2 full length fused to the DNA binding domain (DB) of GAL4 (C. elegans); experiment: as above
[6] = target: SYP-1 full length fused to the DNA binding domain (DB) of GAL4 (C. elegans); experiment: as above
[7] = target: SYP-2 C-terminal truncation (ΔC) fused to the DNA binding domain (DB) of GAL4 (C. elegans); experiment: as above
[8] = target: SYP-1 C-terminal truncation (ΔC) fused to the DNA binding domain (DB) of GAL4 (C. elegans); experiment: two-hybrid; direct test: SYP-1, SYP-2, SYP-3 full length, ΔN and ΔC fused to GAL4 DB, SYP-4 full length fused to GAL4 AD; β-galactosidase activity (X-Gal) and growth on 20 mM 3-AT plates
[9] = target: SYP-1 N-terminal truncation (ΔN) fused to the DNA binding domain (DB) of GAL4 (C. elegans); experiment: as above
[10] = target: SYP-3 C-terminal truncation (ΔC) fused to the DNA binding domain (DB) of GAL4 (C. elegans); experiment: as above
[11] = target: SYP-2 N-terminal truncation (ΔN) fused to the DNA binding domain (DB) of GAL4 (C. elegans); experiment: as above
[12] = target: SYP-2 full length fused to the DNA binding domain (DB) of GAL4 (C. elegans); experiment: as above
[13] = target: SYP-1 full length fused to the DNA binding domain (DB) of GAL4 (C. elegans); experiment: as above
[14] = target: SYP-3 N-terminal truncation (ΔN) fused to the DNA binding domain (DB) of GAL4 (C. elegans); experiment: as above
[15] = target: SYP-2 C-terminal truncation (ΔC) fused to the DNA binding domain (DB) of GAL4 (C. elegans); experiment: as above

binding [1]: no binding | binding [2]: no binding | binding [3]: binds | binding [4]: no binding | binding [5]: no binding | binding [6]: no binding | binding [7]: no binding
B1: SYP-4 (prey found in the yeast two-hybrid library screen) (protein, UniProt Q9N5K3 1-605)
chain: MSFPTLQVRPNEKNPKVLRCHEFLRQSNQLVERNMINTEGRKMLAKLLTKMVSEAKGIYALDERRAELAKSGKLQEKLKSAYQTSLTVMEDRLHIAELSRQVQEKKLTVQQKYYECDDLRKSVQETNTEARRVQEINEQRLVDTTRATEELIVKSASILKNLENSSDVHKLRAMEEEKRILEEVVEGLRDQKKCLADDIRTKKATLKAESKKSFEKTVIECAKHYKLHQSLMPKLDKSKRSLETLKDEEENRRICGSLSLDETMQFDRSFILASMDKTNKPEKAVQQLTSKSSEVSITPQISETAKSSFSKEPIPTQHPMEVGEEPVIEHSAEESVHIEPPNVTEIREVVPQITIQPTRQDSVVQRDAEELDTSAVPSPQPESILDEPEEEEEELSNHENHADQSMDVMEVDQEVPEESPMEVGEQEEIEQPSVFKDILATEQAALSQEQEPEIVEKQADNDVQFVDDQQVGAQLDVEDEEEVMSENGSNKSNNFSFNFFGNSKGTSAGEGGGEGNFDFNFDGIGAGDDGSNNGGSTGDLDFLNYDGEDEGKGSGNTQSDPFGFASNGNAAGGGGDGSFNFNFDGDGEGGATSGAGGNSTSFFNF

binding [8]: no binding | binding [9]: no binding | binding [10]: binds | binding [11]: no binding | binding [12]: no binding | binding [13]: no binding | binding [14]: no binding | binding [15]: no binding
B2: SYP-4 full length fused to the activation domain (AD) of GAL4 (protein, UniProt Q9N5K3 1-605)
chain: B1 chain
